Data as given in PubChem BioAssay AID1224826 (NIAID, 2016).

- Purpose: 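Regulators of Tlr4 signalling leading to Tnf-alpha expression in macrophages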 (primary screen)
- Cells: RAW264.7 G9 macrophages from mouse bearing reporters for p65 (GFP) and the Tnf promoter (mCherry)
- Reagent: siRNA pool against mouse genes, 100 nM
- Duration: 16 h of LPS stimulation, after 2 days of siRNA transfection
- Conditions: bacterial lipopolysaccharide (Salmonella minnesota R595), 10 ng/ml
- Measured: 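Nuclear mCherry signal of the Tnf promoter reporter measured by imaging after background removal, scaled to each plate median and turned into robust z-scores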
- Scale: Tnf reporter robust z-score: higher = stronger Tnf promoter reporter signal after LPS
- Hit rule: 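Called active when robust z-score is at most -1.3, matching the median of the Tlr4 knock-down control, or over 3; control wells and wells with under 50 cells never active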
- Meaning of the calls: active = Tnf reporter clearly lowered or raised; inactive = no clear change in Tnf reporter
Shown is one part, drawn at random, of about 17,000 reagents tested. Of all reagents, about 1,110 (6.6%) got an active call. 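Active means lowered or raised reporter signal; replicate intensities are raw and not normalised per plate.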 The numbers tell different reagents against one gene apart. Further read-outs or replicates are left out here. No sequences are given here.

| Target gene | reagent | Tnf reporter robust z-score | fewer than 50 cells in well | Outcome |
| --- | --- | --- | --- | --- |
| Zfp938 (zinc finger protein 938) | 1 | -0.26 | enough cells in well | inactive |
| Cngb3 (cyclic nucleotide gated channel beta 3) | 1 | 0.4 | enough cells in well | inactive |
| 4833408A19Rik (RIKEN cDNA 4833408A19 gene) | 1 | – | fewer than 50 cells per well; well left out of calls | inactive |
| Commd2 (COMM domain containing 2) | 1 | 1.22 | enough cells in well | inactive |
| Nagpa | 1 | 1.23 | enough cells in well | inactive |
| Aldh1l1 (aldehyde dehydrogenase 1 family, member L1) | 1 | 0.06 | enough cells in well | inactive |
| Fblim1 (filamin binding LIM protein 1) | 1 | – | fewer than 50 cells per well; well left out of calls | inactive |
| Moxd2 (monooxygenase, DBH-like 2) | 1 | -1.47 | enough cells in well | active |
| Mfge8 (milk fat globule EGF and factor V/VIII domain containing) | 1 | -0.17 | enough cells in well | inactive |
| Gosr1 (golgi SNAP receptor complex member 1) | 1 | 0.34 | enough cells in well | inactive |
| Nfia (nuclear factor I/A) | 1 | 0.48 | enough cells in well | inactive |
| Nfia (nuclear factor I/A) | 2 | -0.93 | enough cells in well | inactive |
| Or7g32 (olfactory receptor family 7 subfamily G member 32) | 1 | -0.91 | enough cells in well | inactive |
| Best1 (bestrophin 1) | 1 | -1.3 | enough cells in well | active |

In a second layout: results already given
Zfp938 (zinc finger protein 938)
- Tnf reporter robust z-score: -0.26
- fewer than 50 cells in well: enough cells in well
- Outcome: inactive

Cngb3 (cyclic nucleotide gated channel beta 3)
- Tnf reporter robust z-score: 0.4
- fewer than 50 cells in well: enough cells in well
- Outcome: inactive

4833408A19Rik (RIKEN cDNA 4833408A19 gene)
- fewer than 50 cells in well: fewer than 50 cells per well; well left out of calls
- Outcome: inactive

Further records follow.
| Target gene | reagent | Tnf reporter robust z-score | fewer than 50 cells in well | Outcome |
| --- | --- | --- | --- | --- |
| Cyp7a1 (cytochrome P450, family 7, subfamily a, polypeptide 1) | 1 | -0.62 | enough cells in well | inactive |
| Fra10ac1 (FRA10A associated CGG repeat 1) | 1 | 0.87 | enough cells in well | inactive |
| Slc5a3 | 1 | -1.23 | enough cells in well | inactive |
| Prg2 (proteoglycan 2, bone marrow) | 1 | -1.07 | enough cells in well | inactive |
| Kcnk13 (potassium channel, subfamily K, member 13) | 1 | 1.02 | enough cells in well | inactive |
| Ermap (erythroblast membrane-associated protein) | 1 | 1.43 | enough cells in well | inactive |
| Adnp (activity-dependent neuroprotective protein) | 1 | -0.54 | enough cells in well | inactive |
| Csnk2a1 (casein kinase 2, alpha 1 polypeptide) | 1 | 1.99 | enough cells in well | inactive |
| Cyb561a3 (cytochrome b561 family, member A3) | 1 | 0.29 | enough cells in well | inactive |
| Tnnt2 (troponin T2, cardiac) | 1 | -0.63 | enough cells in well | inactive |
